Reference: article doi:10.1101/2021.06.15.448428
These are yes or no findings as the source states them, for the method shown. In cells and extracts the contact can be indirect. Some binding calls cover weakened binding; strength is not graded here. For some assays here: Sequences can lack the tags named with a protein.

By UniProt entry, the sequences of proteins in these tests, tags left out. Where a name states a change or a piece, a line headed by the entry shows the natural chain unless it says otherwise.
UniProt P25694, whole entry: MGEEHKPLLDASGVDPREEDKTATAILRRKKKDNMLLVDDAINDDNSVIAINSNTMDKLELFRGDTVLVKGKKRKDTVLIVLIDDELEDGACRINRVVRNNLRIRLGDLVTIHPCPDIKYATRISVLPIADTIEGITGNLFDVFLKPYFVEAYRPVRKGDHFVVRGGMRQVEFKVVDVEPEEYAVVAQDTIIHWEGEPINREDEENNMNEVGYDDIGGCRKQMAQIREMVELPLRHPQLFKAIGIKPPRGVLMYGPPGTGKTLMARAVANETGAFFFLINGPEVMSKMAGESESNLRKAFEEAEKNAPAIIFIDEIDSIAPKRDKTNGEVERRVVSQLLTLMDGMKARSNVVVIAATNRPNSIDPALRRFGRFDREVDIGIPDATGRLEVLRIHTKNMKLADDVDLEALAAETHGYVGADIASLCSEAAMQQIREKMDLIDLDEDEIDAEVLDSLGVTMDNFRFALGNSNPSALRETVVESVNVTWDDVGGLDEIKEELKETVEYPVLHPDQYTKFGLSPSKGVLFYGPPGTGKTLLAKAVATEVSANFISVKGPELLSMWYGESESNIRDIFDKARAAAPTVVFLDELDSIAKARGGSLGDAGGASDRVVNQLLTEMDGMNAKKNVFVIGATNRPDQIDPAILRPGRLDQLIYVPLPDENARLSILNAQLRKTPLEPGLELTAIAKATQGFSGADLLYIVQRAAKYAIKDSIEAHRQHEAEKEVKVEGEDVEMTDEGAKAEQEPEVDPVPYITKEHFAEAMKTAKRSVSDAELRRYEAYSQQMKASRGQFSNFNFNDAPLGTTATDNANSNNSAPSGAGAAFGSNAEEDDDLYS

Assays:
[1] = biological target: T1, Dfm1 K67E (S. cerevisiae) (UniProt Q12743); assay: co-sedimentation
T1 sequence: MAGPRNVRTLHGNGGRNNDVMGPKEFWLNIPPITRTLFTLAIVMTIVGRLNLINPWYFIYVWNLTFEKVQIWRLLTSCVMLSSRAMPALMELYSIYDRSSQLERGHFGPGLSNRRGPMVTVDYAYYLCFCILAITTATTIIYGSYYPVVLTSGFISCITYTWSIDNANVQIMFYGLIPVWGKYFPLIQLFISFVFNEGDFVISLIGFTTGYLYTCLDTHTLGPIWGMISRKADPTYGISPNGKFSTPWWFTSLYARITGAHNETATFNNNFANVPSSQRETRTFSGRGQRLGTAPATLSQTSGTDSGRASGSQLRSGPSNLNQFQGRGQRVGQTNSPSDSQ

[2] = biological target: T2, Dfm1 L64V (S. cerevisiae) (UniProt Q12743); assay: co-sedimentation
T2 sequence: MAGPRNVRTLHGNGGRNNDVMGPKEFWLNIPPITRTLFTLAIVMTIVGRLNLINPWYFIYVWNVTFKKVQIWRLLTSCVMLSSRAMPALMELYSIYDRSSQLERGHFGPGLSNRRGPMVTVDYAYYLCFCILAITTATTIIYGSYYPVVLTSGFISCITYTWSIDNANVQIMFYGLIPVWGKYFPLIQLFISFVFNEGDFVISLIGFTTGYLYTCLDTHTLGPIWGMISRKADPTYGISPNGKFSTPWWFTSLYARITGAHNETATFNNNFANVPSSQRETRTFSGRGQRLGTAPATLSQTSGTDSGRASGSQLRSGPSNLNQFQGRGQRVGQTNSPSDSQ

[3] = biological target: T3, Dfm1 F58S (S. cerevisiae) (UniProt Q12743); assay: co-sedimentation
T3 sequence: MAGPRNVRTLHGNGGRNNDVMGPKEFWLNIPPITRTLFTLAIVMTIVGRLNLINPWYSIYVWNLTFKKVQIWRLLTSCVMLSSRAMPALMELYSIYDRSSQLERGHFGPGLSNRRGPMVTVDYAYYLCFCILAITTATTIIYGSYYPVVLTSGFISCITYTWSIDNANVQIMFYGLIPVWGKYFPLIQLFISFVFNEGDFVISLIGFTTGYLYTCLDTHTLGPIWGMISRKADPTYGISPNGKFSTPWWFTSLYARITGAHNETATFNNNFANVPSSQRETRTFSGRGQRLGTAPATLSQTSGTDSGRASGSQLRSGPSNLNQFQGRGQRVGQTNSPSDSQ

[4] = biological target: T4, Dfm1 Q101R (S. cerevisiae) (UniProt Q12743); assay: co-sedimentation
T4 sequence: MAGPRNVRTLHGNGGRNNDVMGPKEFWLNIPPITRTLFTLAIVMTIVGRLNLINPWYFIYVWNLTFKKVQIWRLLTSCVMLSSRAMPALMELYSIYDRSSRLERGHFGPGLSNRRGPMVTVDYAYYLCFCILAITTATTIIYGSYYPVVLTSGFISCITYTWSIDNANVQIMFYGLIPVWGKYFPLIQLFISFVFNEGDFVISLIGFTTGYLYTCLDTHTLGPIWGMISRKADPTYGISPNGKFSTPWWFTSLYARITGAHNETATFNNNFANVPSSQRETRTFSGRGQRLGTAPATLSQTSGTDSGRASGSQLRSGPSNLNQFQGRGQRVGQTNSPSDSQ

[5] = biological target: T5, Dfm1 F107S (S. cerevisiae) (UniProt Q12743); assay: co-sedimentation
T5 sequence: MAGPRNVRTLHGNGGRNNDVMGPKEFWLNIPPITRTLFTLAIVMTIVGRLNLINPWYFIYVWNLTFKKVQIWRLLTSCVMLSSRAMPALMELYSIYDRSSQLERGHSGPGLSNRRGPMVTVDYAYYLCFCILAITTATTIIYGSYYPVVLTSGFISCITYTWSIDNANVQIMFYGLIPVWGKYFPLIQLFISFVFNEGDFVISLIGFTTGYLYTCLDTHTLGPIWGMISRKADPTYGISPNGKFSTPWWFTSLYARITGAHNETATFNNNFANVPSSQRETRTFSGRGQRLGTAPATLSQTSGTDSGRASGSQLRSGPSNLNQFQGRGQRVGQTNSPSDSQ

[6] = biological target: T1, Dfm1 K67E (S. cerevisiae); assay: co-IP
Dfm1-HA (S. cerevisiae) = biological target: T6, Dfm1-HA (S. cerevisiae) (UniProt Q12743); assay: co-IP
T6 sequence: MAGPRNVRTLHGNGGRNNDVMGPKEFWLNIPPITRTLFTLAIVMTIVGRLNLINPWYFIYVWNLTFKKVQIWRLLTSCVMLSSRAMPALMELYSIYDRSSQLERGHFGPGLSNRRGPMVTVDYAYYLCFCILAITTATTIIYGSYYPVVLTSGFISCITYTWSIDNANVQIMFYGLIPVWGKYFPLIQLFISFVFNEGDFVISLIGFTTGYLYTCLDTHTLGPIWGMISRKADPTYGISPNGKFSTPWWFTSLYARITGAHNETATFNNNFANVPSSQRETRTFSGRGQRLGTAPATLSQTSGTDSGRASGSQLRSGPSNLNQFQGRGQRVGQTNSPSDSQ

[7] = biological target: T2, Dfm1 L64V (S. cerevisiae); assay: co-IP
[8] = biological target: T3, Dfm1 F58S (S. cerevisiae); assay: co-IP
[9] = biological target: T4, Dfm1 Q101R (S. cerevisiae); assay: co-IP
[10] = biological target: T5, Dfm1 F107S (S. cerevisiae); assay: co-IP

Measured: binding

Cdc48 (from UniProt P25694 1-835)
binds: [1] | [2] | [3] | [4] | [5]

B1: Hrd1 (protein, UniProt Q08109 1-551)
chain: MVPENRRKQLAIFVVVTYLLTFYCVYSATKTSVSFLQVTLKLNEGFNLMVLSIFILLNSTLLWQLLTKLLFGELRLIEHEHIFERLPFTIINTLFMSSLFHERYFFTVAFFGLLLLYLKVFHWILKDRLEALLQSINDSTTMKTLIFSRFSFNLVLLAVVDYQIITRCISSIYTNQKSDIESTSLYLIQVMEFTMLLIDLLNLFLQTCLNFWEFYRSQQSLSNENNHIVHGDPTDENTVESDQSQPVLNDDDDDDDDDRQFTGLEGKFMYEKAIDVFTRFLKTALHLSMLIPFRMPMMLLKDVVWDILALYQSGTSLWKIWRNNKQLDDTLVTVTVEQLQNSANDDNICIICMDELIHSPNQQTWKNKNKKPKRLPCGHILHLSCLKNWMERSQTCPICRLPVFDEKGNVVQTTFTSNSDITTQTTVTDSTGIATDQQGFANEVDLLPTRTTSPDIRIVPTQNIDTLAMRTRSTSTPSPTWYTFPLHKTGDNSVGSSRSAYEFLITNSDEKENGIPVKLTIENHEVNSLHGDGGEQIAKKIVIPDKFIQHI
binds: [6] | Dfm1-HA (S. cerevisiae) | [7] | [8] | [9] | [10]

B2: Hrd3 (protein, UniProt Q05787 21-833)
chain: DSIADPWPEARHLLNTIAKSRDPMKEAAMEPNADEFVGFYVPMDYSPRNEEKNYQSIWQNEITDSQRHIYELLVQSSEQFNNSEATYTLSQIHLWSQYNFPHNMTLAHKYLEKFNDLTHFTNHSAIFDLAVMYATGGCASGNDQTVIPQDSAKALLYYQRAAQLGNLKAKQVLAYKYYSGFNVPRNFHKSLVLYRDIAEQLRKSYSRDEWDIVFPYWESYNVRISDFESGLLGKGLNSVPSSTVRKRTTRPDIGSPFIAQVNGVQMTLQIEPMGRFAFNGNDGNINGDEDDEDASERRIIRIYYAALNDYKGTYSQSRNCERAKNLLELTYKEFQPHVDNLDPLQVFYYVRCLQLLGHMYFTGEGSSKPNIHMAEEILTTSLEISRRAQGPIGRACIDLGLINQYITNNISQAISYYMKAMKTQANNGIVEFQLSKLATSFPEEKIGDPFNLMETAYLNGFIPAIYEFAVMIESGMNSKSSVENTAYLFKTFVDKNEAIMAPKLRTAFAALINDRSEVALWAYSQLAEQGYETAQVSAAYLMYQLPYEFEDPPRTTDQRKTLAISYYTRAFKQGNIDAGVVAGDIYFQMQNYSKAMALYQGAALKYSIQAIWNLGYMHEHGLGVNRDFHLAKRYYDQVSEHDHRFYLASKLSVLKLHLKSWLTWITREKVNYWKPSSPLNPNEDTQHSKTSWYKQLTKILQRMRHKEDSDKAAEDSHKHRTVVQNGANHRGDDQEEASEILGFQMEDLVTMGCILGIFLLSILMSTLAARRGWNVRFNGAQLNANGNRQQEQQQQQQAQGPPGWDFNVQIFAI
binds: [6] | Dfm1-HA (S. cerevisiae) | [7] | [8] | [9] | [10]
